PMC4603714 (Drug Design, Development and Therapy, 2015)
pIC50: −log10 of the molar value.

How the values were obtained:
HeLa cells = conditions: read-out: HeLa IC50; MTT; ref Zhang et al.[8]; cited from earlier work
H7402 cells = conditions: read-out: H7402 IC50; MTT; ref Zhang et al.[8]; cited from earlier work
U937 xenograft = test: In vivo antitumor assay in U937 xenograft model; design: species or system male athymic nude mice (BALB/c-nu); conditions: U937 xenograft in nude mice, 100 mg/kg once a day orally for 12 days
Outline: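 U937 cells were injected subcutaneously into the right flank of male BALB/c-nu mice aged 5–6 weeks. After about 10 days, at roughly 100 mm3, mice were randomized six per group. Dosing was oral, 100 mg/kg daily for 12 days, with controls given an equal volume of PBS. Calipers were used every 3 days, V = ab2/2, and RTV = Vt/V0. Body weight was tracked. Tumors were weighed and organs inspected at necropsy. Analysis used a two-tailed t-test, P<0.05.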

U937 cells = conditions: read-out: U937 IC50; MTT; ref Zhang et al.[8]; cited from earlier work
HCT116 cells = conditions: read-out: HCT116 IC50; MTT; ref Zhang et al.[8]; cited from earlier work
U266 cells = conditions: read-out: U266 IC50; MTT; ref Zhang et al.[8]; cited from earlier work
KG-1 cells = conditions: read-out: KG-1 IC50; MTT; ref Zhang et al.[8]; cited from earlier work

Structure (SMILES): O=C(CCCCCCC(=O)Nc1ccccc1)NO [SAHA, suberoylanilide hydroxamic acid]
- pIC50 (HeLa cells): 5.05
- pIC50 (H7402 cells): 5.10
- Relative increment ratio (T/C) (U937 xenograft): 49%
- pIC50 (U937 cells): 5.38
- pIC50 (HCT116 cells): 5.39
- pIC50 (U266 cells): 5.85
- pIC50 (KG-1 cells): 5.57
